Results are given in words; binding and its absence hold for the method and conditions named. Binding seen in cells or lysates may run through a third protein. These calls come from enrichment with a bait or labelling near it, and not all partners need be listed. Where a sequence is shown, tags or fusion partners need not be part of it.
Biological target: T1, FLAG-CLEC12A (human) (UniProt Q5QGZ9)
T1 sequence: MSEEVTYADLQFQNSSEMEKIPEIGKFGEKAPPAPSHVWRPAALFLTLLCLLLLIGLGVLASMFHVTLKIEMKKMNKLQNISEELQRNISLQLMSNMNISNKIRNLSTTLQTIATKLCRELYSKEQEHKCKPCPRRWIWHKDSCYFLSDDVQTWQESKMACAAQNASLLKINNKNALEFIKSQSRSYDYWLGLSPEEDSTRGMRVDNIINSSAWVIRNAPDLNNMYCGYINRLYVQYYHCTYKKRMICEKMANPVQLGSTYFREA
Assay: affinity purification with mass spectrometry; whole cell extracts of U-937 cells expressing the FLAG-tagged bait incubated with anti-FLAG beads for 2 h; six washes in 200 mM NaCl, 50 mM Tris-HCl, 0.25% IGEPAL, pH 7.9; on-bead trypsin/LysC digestion; label-free LC-MS/MS; three replicates

Protein sequences, listed by entry. Tags and fused reporters are not part of them.
UniProt P28066: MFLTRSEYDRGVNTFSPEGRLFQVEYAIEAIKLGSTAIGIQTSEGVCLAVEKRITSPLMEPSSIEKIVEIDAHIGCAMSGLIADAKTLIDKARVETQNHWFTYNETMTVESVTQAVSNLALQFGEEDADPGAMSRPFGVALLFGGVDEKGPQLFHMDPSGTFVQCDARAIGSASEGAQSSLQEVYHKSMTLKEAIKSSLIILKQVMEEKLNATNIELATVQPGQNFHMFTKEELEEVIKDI

binding: binds
Substance: PSA5 (from UniProt P28066 1-241)
